Source: patent US20190085081A1
These are yes or no findings as the source states them, for the method shown. For part of these data: Binding calls can cover weak binding; strength is not graded here.

Tests used:
[1] = target: CLEC14A with the sushi domain deleted, N-terminal HA tag; assay: far Western blot with MMRN2 protein lysate, non-reduced
[2] = target: CLEC14A with the C-type lectin domain (CTLD) deleted, N-terminal HA tag; assay: as above
[3] = target: ΔMucin 1; assay: far Western blot of lysates of transfected HEK293T cells, probed with MMRN2 protein lysate
[4] = target: CLEC14A with the sushi domain deleted, N-terminal HA tag; assay: as above
[5] = target: ΔMucin 2; assay: as above
[6] = target: CLEC14A with the C-type lectin domain (CTLD) deleted, N-terminal HA tag; assay: as above

binding [1]: no binding
binding [2]: no binding
binding [3]: binds
binding [4]: no binding
binding [5]: binds
binding [6]: no binding
B1: MMRN2 overexpressed in HEK293T cells (ligand, not shown: small tags and cut ends)
chain: QASSTSLSDLQSSRTPGVWKAEAEDTGKDPVGRNWCPYPMSKLVTLLALCKTEKFLIHSQQPCPQGAPDCQKVKVMYRMAHKPVYQVKQKVLTSLAWRCCPGYTGPNCEHHDSMAIPEPADPGDSHQEPQDGPVSFKPGHLAAVINEVEVQQEQQEHLLGDLQNDVHRVADSLPGLWKALPGNLTAAVMEANQTGHEFPDRSLEQVLLPHVDTFLQVHFSPIWRSFNQSLHSLTQAIRNLSLDVEANRQAISRVQDSAVARADFQELGAKFEAKVQENTQRVGQLRQDVEDRLHAQHFTLHRSISELQADVDTKLKRLHKAQEAPGTNGSLVLATPGAGARPEPDSLQARLGQLQRNLSELHMTTARREEELQYTLEDMRATLTRHVDEIKELYSESDETFDQISKVERQVEELQVNHTALRELRVILMEKSLIMEENKEEVERQLLELNLTLQHLQGGHADLIKYVKDCNCQKLYLDLDVIREGQRDATRALEETQVSLDERRQLDGSSLQALQNAVDAVSLAVDAHKAEGERARAATSRLRSQVQALDDEVGALKAAAAEARHEVRQLHSAFAALLEDALRHEAVLAALFGEEVLEEMSEQTPGPLPLSYEQIRVALQDAASGLQEQALGWDELAARVTALEQASEPPRPAEHLEPSHDAGREEAATTALAGLARELQSLSNDVKNVGRCCEAEAGAGAASLNASLDGLHNALFATQRSLEQHQRLFHSLFGNFQGLMEANVSLDLGKLQTMLSRKGKKQQKDLEAPRKRDKKEAEPLVDIRVTGPVPGALGAALWEAGSPVAFYASFSEGTAALQTVKFNTTYINIGSSYFPEHGYFRAPERGVYLFAVSVEFGPGPGTGQLVFGGHHRTPVCTTGQGSGSTATVFAMAELQKGERVWFELTQGSITKRSLSGTAFGGFLMFKT
